Reference: PubChem BioAssay AID1224828 (NIAID, 2016)
Purpose: 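Regulators linking TLR4 signalling to p65 nuclear translocation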 (primary screen). Cells: mouse RAW264.7 G9 macrophage reporter cells (GFP-p65, Tnf promoter-mCherry). Knock-down reagent: siRNA pool against mouse genes, 100 nM. Duration: 2 days siRNA transfection, then 40 min LPS before fixation. Treatment: LPS (Salmonella minnesota R595) at 10 ng/ml. Measurement: 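Microscopy ratio of nuclear to perinuclear-ring GFP-p65 signal, scaled to the plate median; gene score is the average of two replicate robust z-scores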. Direction: p65 translocation robust z-score: higher = more nuclear NF-kappaB p65 after LPS than the plate median; nuclear/cytoplasmic p65 ratio: higher = more nuclear NF-kappaB p65. Call rule: 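Called active when z exceeds 3.3 or falls under -1.56 (median of Tlr4 controls), giving activity score of at least 50; no calls for control wells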. Calls: active = hit (p65 shift raised or lowered); inactive = no clear change.
The deposit covers about 17,000 reagents; this is a part drawn at random. Of all reagents, 762 (4.5%) were called active. 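Active calls include both raised and lowered p65 entry, mostly lowered; wells with fewer than 50 cells lack a z-score.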 Raw values are not corrected between plates.

no.	Target gene	p65 translocation robust z-score	nuclear/cytoplasmic p65 ratio, rep 1	nuclear/cytoplasmic p65 ratio, rep 2	low cell count flag	outcome
1	Xlr	0.75	1.32	1.33	enough cells to score	inactive
2	Smpd3	1.01	1.7	1.69	enough cells to score	inactive
3	Btbd7	-0.97	0	1.39	enough cells to score	inactive
4	Kif1b		1.25	1.09	fewer than 50 cells per well; well left out of scoring	inactive
5	Rpl18	-0.29	1.22	1.19	enough cells to score	inactive
6	Trpm4	-1.1	1.44	1.28	enough cells to score	inactive
7	Sh3tc1		1.18	1.11	fewer than 50 cells per well; well left out of scoring	inactive
8	Cth	-0.68	1.28	1.38	enough cells to score	inactive
9	Ccdc71l		1.3	1.52	fewer than 50 cells per well; well left out of scoring	inactive
10	Snapc5	-0.08	1.41	1.08	enough cells to score	inactive
11	Bnip1	0.06	1.69	1.55	enough cells to score	inactive
12	Fga	-1.01	1.29	1.28	enough cells to score	inactive
13	9530091C08Rik	0.07	1.49	1.5	enough cells to score	inactive
14	Ufm1		1.24	1.28	fewer than 50 cells per well; well left out of scoring	inactive
15	Lrrn2	0.06	1.65	1.62	enough cells to score	inactive
16	Or4k35	1.99	1.91	1.69	enough cells to score	inactive
17	Chmp2a	0.21	1.62	1.43	enough cells to score	inactive
18	Cpt1c	-0.09	1.47	1.87	enough cells to score	inactive
19	Bcl2a1d	-0.08	1.51	1.69	enough cells to score	inactive
20	Ap1ar	-0.43	1.48	1.81	enough cells to score	inactive
21	Gna13	-0.88	1.39	1.44	enough cells to score	inactive
22	Idh3g	-2.65	1.21	1.04	enough cells to score	active
23	Dlk2		1.05	1.36	fewer than 50 cells per well; well left out of scoring	inactive
24	Apoa4	0.24	1.68	1.63	enough cells to score	inactive
25	Sipa1	-1.36	1.31	1.4	enough cells to score	inactive
26	Baat	-0.03	1.66	1.56	enough cells to score	inactive
27	Kif2b	-0.29	1.44	1.33	enough cells to score	inactive
28	Fnbp1l	0.82	1.48	1.6	enough cells to score	inactive
29	Rundc3b	0.22	1.69	1.63	enough cells to score	inactive
30	Dnajc11	1.55	1.69	1.55	enough cells to score	inactive
31	Nus1	-0.08	1.55	1.78	enough cells to score	inactive
32	Mboat1	-0.19	1.65	1.54	enough cells to score	inactive
33	Or9g10	0.95	1.64	1.65	enough cells to score	inactive
34	Efna1	0.13	1.49	1.38	enough cells to score	inactive
35	Il23a		1.3	1.31	fewer than 50 cells per well; well left out of scoring	inactive
36	Six6	0.14	1.58	1.56	enough cells to score	inactive
37	Kcnh5	-0.6	1.56	1.48	enough cells to score	inactive
38	Retreg3	0.14	1.49	1.53	enough cells to score	inactive
39	Brcc3dc	-0.79	1.35	1.39	enough cells to score	inactive
40	Adnp		1.32	1.51	fewer than 50 cells per well; well left out of scoring	inactive
41	Hmgn1	-0.86	1.27	1.31	enough cells to score	inactive
42	Cenpc1	-0.61	1.38	1.3	enough cells to score	inactive
43	Jmjd8	-0.08	1.34	1.5	enough cells to score	inactive
44	Gtf2a2	-0.03	1.58	1.55	enough cells to score	inactive
45	Il5ra	0.81	1.78	1.31	enough cells to score	inactive
46	Aurkc	-1.95	1.54	1.14	enough cells to score	active
47	Klk1	-2.17	1.23	1.15	enough cells to score	active
48	Spata17		1.23	0	fewer than 50 cells per well; well left out of scoring	inactive
49	Syp	0.73	1.46	1.33	enough cells to score	inactive
50	Ninj2	1.04	1.84	1.71	enough cells to score	inactive
51	Cxadr	1.29	1.7	1.5	enough cells to score	inactive
52	Shank3	-0.09	1.54	1.54	enough cells to score	inactive
53	Fdft1	-0.28	1.44	1.33	enough cells to score	inactive
54	Hsd17b7	-0.09	1.43	1.36	enough cells to score	inactive
55	Itm2b	-0.48	1.36	1.37	enough cells to score	inactive
56	Or9g4	-0.64	1.56	1.48	enough cells to score	inactive
57	Chchd1	3.39	1.96	1.96	enough cells to score	active
58	Or4p23	0.07	1.67	1.59	enough cells to score	inactive
59	Reps2		1.48	1.4	fewer than 50 cells per well; well left out of scoring	inactive
